Experimental data as given in PMC8688515.
Results are given in words; binding and its absence hold for the method and conditions named. In cells and extracts the contact can be indirect. Some results given as binding are weak or reduced against the parent protein; the word gives no strength.

Protein sequences, listed by entry. Tags and fused reporters are not part of them.
UniProt A6NIX2: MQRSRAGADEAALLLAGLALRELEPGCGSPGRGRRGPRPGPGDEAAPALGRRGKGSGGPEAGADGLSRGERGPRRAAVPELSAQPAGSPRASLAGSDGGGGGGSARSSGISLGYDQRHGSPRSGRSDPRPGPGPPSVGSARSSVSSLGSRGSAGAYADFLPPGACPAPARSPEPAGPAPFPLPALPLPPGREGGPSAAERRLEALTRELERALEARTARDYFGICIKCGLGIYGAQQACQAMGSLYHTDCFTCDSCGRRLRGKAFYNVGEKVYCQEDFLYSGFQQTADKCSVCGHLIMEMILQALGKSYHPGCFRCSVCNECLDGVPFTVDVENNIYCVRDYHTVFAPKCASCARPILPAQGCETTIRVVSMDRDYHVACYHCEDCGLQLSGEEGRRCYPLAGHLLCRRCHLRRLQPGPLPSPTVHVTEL
UniProt O43524: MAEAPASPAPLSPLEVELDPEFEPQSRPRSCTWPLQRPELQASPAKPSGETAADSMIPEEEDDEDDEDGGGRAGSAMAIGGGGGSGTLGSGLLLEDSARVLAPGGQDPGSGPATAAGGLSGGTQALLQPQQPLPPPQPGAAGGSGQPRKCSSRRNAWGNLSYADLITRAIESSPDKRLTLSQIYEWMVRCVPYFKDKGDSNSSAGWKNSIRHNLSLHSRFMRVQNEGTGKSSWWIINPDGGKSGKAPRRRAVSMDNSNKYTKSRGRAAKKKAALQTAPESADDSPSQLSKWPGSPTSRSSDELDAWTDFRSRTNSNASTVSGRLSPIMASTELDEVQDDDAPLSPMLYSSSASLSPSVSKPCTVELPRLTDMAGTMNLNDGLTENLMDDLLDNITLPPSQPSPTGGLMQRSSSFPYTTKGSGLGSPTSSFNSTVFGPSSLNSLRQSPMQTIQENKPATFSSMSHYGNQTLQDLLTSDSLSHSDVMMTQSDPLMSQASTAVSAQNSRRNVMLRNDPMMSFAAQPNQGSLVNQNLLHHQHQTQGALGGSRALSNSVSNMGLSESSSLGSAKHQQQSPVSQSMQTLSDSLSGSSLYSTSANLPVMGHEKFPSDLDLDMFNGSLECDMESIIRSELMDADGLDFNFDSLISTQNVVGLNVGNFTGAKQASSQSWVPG

Molecular target: WTIP (human (coding sequence amplified from HEK293 cells)) (UniProt A6NIX2)
Assay: co-IP; MOLM-13 cells transfected with WTIP or control vector, doxycycline 48 h; RIPA lysates; primary antibody (anti-WTIP) or normal IgG overnight at 4 °C, protein A magnetic beads 2 h at 4 °C, washed three times with PBST; immunoblot with anti-FOXO3a

- binding: binds
Substance: FOXO3a (from UniProt O43524 1-673)
